Values from PubChem BioAssay AID743454 (Peter MacCallum Cancer Centre, 2014).
Purpose: 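Knock-downs lowering viability or raising caspase 3/7 activity in vorinostat-treated resistant cells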 (primary screen). System: human HCT116-VR colon cancer cells, selected for vorinostat resistance. Reagent: siRNA pool against human genes, 40 nM siRNA pool. Duration: vorinostat for 24 h, read-out about 72 h after transfection. Treatment: vorinostat at 2.5 µM final. Measurement: 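Two measures, CellTiter-Fluor viability and luminescent caspase 3/7 activity, each as fold change against same-plate mock wells, mean of duplicates, then screen-wide robust z-score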. Scale: viability robust z-score: higher = more viable cells than screen typical; caspase robust z-score: higher = more caspase 3/7 activity than screen typical. Hit rule: 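a knock-down is a hit when classed RV1 or RV2 for lowered viability, or CA1 or CA2 for caspase activation; those lethal without drug were dropped; hits were retested singly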.
The whole screen tested about 18,000 reagents; shown is a random part of them. In the full data, 450 (2.5%) were called active. 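Single biological run; no consistent viability z cut-off exists, so the class columns, not z-scores, define the calls.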

gene knocked down	PubChem SID	viability hit class	caspase hit class	viability robust z-score	caspase robust z-score	outcome
LOXL4	SID152156555	no change	no change	1.7	-0.38	inactive
OSBPL6	SID134314182	no change	CA1 (caspase activation)	-0.8	5.16	active
ZNF17	SID135624412	no change	no change	1.09	1.55	inactive
FOLH1B	SID135621524	no change	no change	-0.19	-0.4	inactive
UGT2B11	SID135623933	no change	no change	0.34	1.34	inactive
SSTR3	SID134311159	no change	no change	-0.5	1.71	inactive
P4HA2	SID135621185	no change	no change	-0.52	2.62	inactive
CKB	SID56479084	no change	no change	-0.08	-0.42	inactive
VPS36	SID135620872	no change	no change	0	2.68	inactive
SUPV3L1	SID152152339	no change	no change	1.64	-0.57	inactive
ANXA4	SID134315233	no change	no change	0.08	0.4	inactive
SLC15A2	SID152148800	no change	no change	1.19	-0.91	inactive
DACT2	SID152148164	no change	no change	0.19	0.17	inactive
MTFR1L	SID135623287	no change	no change	-2.09	0.62	inactive
WNT8B	SID135621767	no change	no change	0.69	1.98	inactive
ZNF100	SID152150680	no change	no change	-0.12	-0.22	inactive
EIF6	SID134314738	no change	no change	-0.98	-0.36	inactive
COL20A1	SID152155090	no change	no change	-3.16	1.27	inactive
ITPKB	SID56479111	no change	no change	-0.4	1.44	inactive
FN3KRP	SID56479164	no change	CA1 (caspase activation)	0.48	5.5	active
C4orf46	SID152150909	no change	no change	0.62	2.67	inactive
AMFR	SID152155351	no change	no change	0.32	5.12	inactive
TMEM222	SID152154526	no change	no change	0.5	-0.29	inactive
ZNF630	SID135624468	no change	no change	-1.73	-1.02	inactive
PPP1R14D	SID152147477	no change	no change	-1.57	-0.84	inactive
KRT84	SID152152516	no change	no change	0.36	0.94	inactive
STAT6	SID134311958	no change	no change	-1.97	-0.52	inactive
PPP1R13L	SID152150265	no change	no change	-1.32	1.52	inactive
PLN	SID134316072	no change	no change	0.88	-0.17	inactive
PLBD2	SID134322348	no change	no change	-0.29	1.94	inactive
SHMT1	SID134310554	no change	no change	0.3	0.9	inactive
SUN5	SID134320783	no change	no change	-0.19	2.16	inactive
ELOVL7	SID152154601	no change	no change	1.2	0.98	inactive
MRPS10	SID134317574	no change	no change	0.56	-0.48	inactive
VTA1	SID134320937	no change	no change	-0.16	-0.62	inactive
CLVS2	SID152152474	no change	no change	0.13	0.72	inactive
PECR	SID152153351	no change	no change	-0.18	-0.43	inactive
MRPL50	SID135622516	no change	no change	0.42	-0.65	inactive
ARSA	SID152151847	no change	CA2 (caspase activation)	-1.21	5.64	active

As entered above.
Entry for WNT8B [SID135621767] under “outcome”: inactive
For “viability robust z-score”, P4HA2 [SID135621185] is entered as -0.52
SUN5 [SID134320783], viability hit class: no change
